Reference: PubChem BioAssay AID2685 (National Center for Advancing Translational Sciences (NCATS), 2010)
Some of the results follow. These are further read-outs of the screen, such as a control signal, another cell line or another target. No call is given for them. Compounds called inactive in the main read-out are mostly missing here. The note in brackets gives the kind of curve behind each potency; many fits are weak.

Assay: qHTS Assay for Lipid Storage Modulators in Drosophila S3 Cells;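 as to cell number change: cells counted by Cell Tracker Red CMTPX staining in the red channel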
Conditions: BODIPY lipid droplet fluorescence, 18-24 h; for cell number change: measured here: cell count max response, cells fed with added oleic acid
Outline: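 Drosophila S3 cells got compounds at several concentrations plus oleic acid (400 uM solution). Laser-scanning cytometry with 488 nm excitation read lipid droplets at 500-530 nm and cells at 575-640 nm. Percent activity was relative to 20 uM Triacsin C.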

[1] = measured here: lipid fluorescence (Fed channel) AC50, cells fed with added oleic acid
[2] = measured here: cell number channel AC50, cells fed with added oleic acid

## Cc1oc(-c2ccc(Cl)cc2)nc1CN1CCCC(C(=O)NC2CC2)C1 (stereo unspecified)
  cell number change: 2.8%
[1]
  AC50: 3.26 µM [rising, single point]

## CC(=O)c1c(C)[nH]c(C(=O)CSc2nnc(-c3ccc(Cl)cc3)n2CC2CCCO2)c1C (stereo unspecified)
[2]
  AC50: 0.461 µM [rising, full curve]
[1]
  AC50: 0.411 µM [rising, partial curve, poor fit]

## Cc1cnccc1CN(C)Cc1cn(C)nc1-c1cccc(Cl)c1
  cell number change: 15.9%

## CNC(=S)N(CCc1ccc(OC)c(OC)c1)Cc1cc2c(C)cc(C)cc2[nH]c1=O
  cell number change: -32.4%
[1]
  AC50: 9.2 µM [rising, partial curve]

## CCCN1CCN(CCCNC(=O)c2cc3c(=O)n(C)c4ccccc4c3n2C)CC1
  cell number change: 3.1%
[1]
  AC50: 6.51 µM [rising, partial curve]

## CC1CCCN(C(=O)c2cccc(S(=O)(=O)N3CCCc4ccccc43)c2)C1 (stereo unspecified)
  cell number change: 29.9%
[1]
  AC50: 6.51 µM [rising, single point]

## COc1ccc(C2OC34CCCCC3C(C#N)(C#N)C2(C#N)C(=N)O4)cc1 (stereo unspecified)
  cell number change: 23.9%
[1]
  AC50: 23.1 µM [rising, single point]

## O=C(N/N=C/c1ccoc1)c1ccc(Cl)cc1Cl
[2]
  AC50: 3.26 µM [rising, single point]
[1]
  AC50: 11.6 µM [falling, single point]

## COc1ccccc1CCNC(=O)CSc1nnc2ccc(-c3cccnc3)nn12
[2]
  AC50: 0.00461 µM [falling, full curve, poor fit]

## C/C(=N\NC(=O)c1cc(C)oc1C)c1ccc(N2CCOCC2)cc1
[2]
  AC50: 6.51 µM [rising, single point]

## O=C(CC1Oc2ccccc2NC1=O)NCc1ccccc1 (stereo unspecified)
[2]
  AC50: 0.651 µM [falling, single point]
[1]
  AC50: 0.731 µM [falling, single point]

## CCOCCCNC(=O)CC1Oc2ccc(C)cc2NC1=O (stereo unspecified)
  cell number change: -1.76%
[2]
  AC50: 0.58 µM [falling, full curve, poor fit]
[1]
  AC50: 10.3 µM [falling, partial curve]

## Cc1cc(C)c(S(=O)(=O)N2CCCOC2CNC(=O)C(=O)NCCC2=CCCCC2)c(C)c1 (stereo unspecified)
  cell number change: -3.61%
[1]
  AC50: 0.651 µM [falling, single point]

## Clc1cccc(-c2ccc3ncnc(NCc4cccs4)c3c2)c1
  cell number change: 18.2%
[1]
  AC50: 20.6 µM [rising, partial curve, poor fit]

## O=C(N/N=C/c1cc(Cl)cc([N+](=O)[O-])c1O)C(O)(c1ccccc1)c1ccccc1
  cell number change: 0.702%

## COc1ccc(OC)c(C(c2nnnn2C2CCCC2)N2CCN(c3ccc(F)cc3)CC2)c1 (stereo unspecified)
  cell number change: -4.45%
[1]
  AC50: 6.51 µM [falling, single point]

## CCOc1ccc(CCNC(=O)CN2C(=O)NC3(CCCCC3C)C2=O)cc1OCC (stereo unspecified)
  cell number change: -39.4%
[2]
  AC50: 8.2 µM [falling, partial curve, poor fit]
[1]
  AC50: 10.3 µM [falling, partial curve, poor fit]

## Cc1cc(-c2ccc(Cl)cc2)n2nc(N)nc2n1
  cell number change: 11.8%
[1]
  AC50: 16.4 µM [rising, single point]

## CCC(=O)Nc1cccc(NC(=O)CSc2nc3c(c(=O)n(C)c(=O)n3C)n2C)c1
  cell number change: 55.1%
[2]
  AC50: 32.6 µM [rising, single point]

## O=C1CCc2cc(S(=O)(=O)N3CCN(c4cccc(C(F)(F)F)c4)CC3)ccc2N1
  cell number change: -42.9%
[2]
  AC50: 20.6 µM [falling, single point]
[1]
  AC50: 20.6 µM [falling, single point]

## O=C(O)C1=C[C@H](c2cccs2)C[C@H](OCc2ccc(CO)cc2)O1
  cell number change: 29.2%
[1]
  AC50: 6.51 µM [rising, partial curve]

## O=C(c1ccc(F)cc1)C1CCN(C(=O)NC2CCCCC2)CC1
  cell number change: -24.2%

## Nn1c(Cc2cccc3ccccc23)nnc1SCCOc1ccc(F)cc1
  cell number change: -3.44%
[1]
  AC50: 3.26 µM [rising, single point]

## COc1ccccc1C1=NC(c2ccc(F)cc2)N=C1C (stereo unspecified)
  cell number change: 22.6%

## O=C(/C=C/c1ccccc1)NC(=S)Nc1ccc2c3c(cccc13)CC2
  cell number change: 2.01%
[1]
  AC50: 2.91 µM [rising, full curve]

## Cc1cc(C)c2nc(SCC(=O)Nc3ccc(S(=O)(=O)N4CCCC4)cc3)c(C)cc2c1
  cell number change: 7.01%
[1]
  AC50: 3.66 µM [rising, partial curve]

## Cc1cc(C)c2nc(N3CCC(C(=O)NCCCN4CCCCC4)CC3)sc2c1
  cell number change: -24%
[2]
  AC50: 3.26 µM [falling, full curve, poor fit]

## COc1ccccc1CNC(=O)C(NS(=O)(=O)c1ccc2c(c1)OCCO2)C(C)C (stereo unspecified)
  cell number change: 2.36%
[1]
  AC50: 25.9 µM [falling, single point]

## CC(C)(C)C1CCc2c(sc(NC(=O)c3cccs3)c2C(=O)N2CCCCC2)C1 (stereo unspecified)
  cell number change: -20.7%

## Fc1ccc(-n2nnnc2-c2cnc(-c3cccs3)nc2C(F)(F)F)cc1
  cell number change: -32.2%
[2]
  AC50: 5.17 µM [falling, full curve, poor fit]
[1]
  AC50: 4.61 µM [falling, full curve, poor fit]

## C/C(O)=C(/C=NCC(=O)O)C(=O)Nc1nccs1
  cell number change: 11.5%
[2]
  AC50: 1.03 µM [rising, full curve, poor fit]
[1]
  AC50: 1.16 µM [rising, full curve, poor fit]

## O=C(O)COc1ccccc1/C=N/NC(=O)c1ccc(F)cc1
  cell number change: -16.6%
[2]
  AC50: 0.00517 µM [falling, full curve, poor fit]

## COc1cc(NC(=O)c2cc3c(C)nc4ccccc4c3o2)cc(OC)c1OC
  cell number change: -24.9%
[1]
  AC50: 0.82 µM [rising, full curve, poor fit]

## COc1ccc(CC(=O)N2CCN(c3ccccc3OC)CC2)cc1
  cell number change: 6.15%
[1]
  AC50: 0.517 µM [rising, partial curve, poor fit]

## Clc1ccc(CONc2ncnc3nonc23)c(Cl)c1
  cell number change: -33.4%
[2]
  AC50: 29.1 µM [falling, single point]

## CCCc1nc(SCC(=O)c2ccc(OC)cc2)c2c(=O)n(C)c(=O)n(C)c2n1
[1]
  AC50: 0.58 µM [falling, single point]

## CC(C)c1ccc(C2C3CSCC=C3C(C#N)=C(N)C2(C#N)C#N)cc1 (stereo unspecified)
  cell number change: 22%
[1]
  AC50: 5.17 µM [falling, single point]
